Where two headings read alike, the source gives them in different places. Results are given in words; binding and its absence hold for the method and conditions named. In cells and extracts the contact can be indirect. A yes stands for co-enrichment or nearness to the bait. Other partners may have been found.

Sequences of proteins named here, by UniProt entry; tags and fusion partners are left off. A change or cut given only in a name is not applied to a line headed by its entry.
UniProt Q9VPB7: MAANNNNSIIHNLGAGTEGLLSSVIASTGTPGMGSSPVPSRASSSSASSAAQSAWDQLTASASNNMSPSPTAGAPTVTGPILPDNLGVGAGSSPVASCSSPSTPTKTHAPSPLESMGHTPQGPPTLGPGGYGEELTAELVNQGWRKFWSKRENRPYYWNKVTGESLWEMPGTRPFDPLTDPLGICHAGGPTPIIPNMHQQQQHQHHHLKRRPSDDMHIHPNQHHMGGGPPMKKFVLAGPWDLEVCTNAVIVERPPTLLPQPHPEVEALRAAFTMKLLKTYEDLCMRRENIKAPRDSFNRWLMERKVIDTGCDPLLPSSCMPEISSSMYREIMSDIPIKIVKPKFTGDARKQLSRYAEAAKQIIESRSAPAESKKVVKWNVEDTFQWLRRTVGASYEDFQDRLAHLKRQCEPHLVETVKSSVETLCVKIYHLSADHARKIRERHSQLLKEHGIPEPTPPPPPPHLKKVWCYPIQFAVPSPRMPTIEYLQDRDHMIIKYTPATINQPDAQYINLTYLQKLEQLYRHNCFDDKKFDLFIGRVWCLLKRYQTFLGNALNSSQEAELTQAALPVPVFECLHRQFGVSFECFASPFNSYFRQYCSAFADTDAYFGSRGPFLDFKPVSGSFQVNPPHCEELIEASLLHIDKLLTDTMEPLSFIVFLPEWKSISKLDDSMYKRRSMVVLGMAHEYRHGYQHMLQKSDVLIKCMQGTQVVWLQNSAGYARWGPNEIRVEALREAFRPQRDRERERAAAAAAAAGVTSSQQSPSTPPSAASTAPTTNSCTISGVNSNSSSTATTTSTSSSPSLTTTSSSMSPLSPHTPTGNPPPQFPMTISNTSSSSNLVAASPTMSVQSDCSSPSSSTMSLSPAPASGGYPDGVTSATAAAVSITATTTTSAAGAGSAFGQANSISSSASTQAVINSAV
UniProt P08985: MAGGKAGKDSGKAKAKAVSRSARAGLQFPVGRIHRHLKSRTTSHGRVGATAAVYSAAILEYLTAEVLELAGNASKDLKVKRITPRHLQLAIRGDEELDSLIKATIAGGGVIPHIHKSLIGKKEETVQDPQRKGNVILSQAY
UniProt P04052: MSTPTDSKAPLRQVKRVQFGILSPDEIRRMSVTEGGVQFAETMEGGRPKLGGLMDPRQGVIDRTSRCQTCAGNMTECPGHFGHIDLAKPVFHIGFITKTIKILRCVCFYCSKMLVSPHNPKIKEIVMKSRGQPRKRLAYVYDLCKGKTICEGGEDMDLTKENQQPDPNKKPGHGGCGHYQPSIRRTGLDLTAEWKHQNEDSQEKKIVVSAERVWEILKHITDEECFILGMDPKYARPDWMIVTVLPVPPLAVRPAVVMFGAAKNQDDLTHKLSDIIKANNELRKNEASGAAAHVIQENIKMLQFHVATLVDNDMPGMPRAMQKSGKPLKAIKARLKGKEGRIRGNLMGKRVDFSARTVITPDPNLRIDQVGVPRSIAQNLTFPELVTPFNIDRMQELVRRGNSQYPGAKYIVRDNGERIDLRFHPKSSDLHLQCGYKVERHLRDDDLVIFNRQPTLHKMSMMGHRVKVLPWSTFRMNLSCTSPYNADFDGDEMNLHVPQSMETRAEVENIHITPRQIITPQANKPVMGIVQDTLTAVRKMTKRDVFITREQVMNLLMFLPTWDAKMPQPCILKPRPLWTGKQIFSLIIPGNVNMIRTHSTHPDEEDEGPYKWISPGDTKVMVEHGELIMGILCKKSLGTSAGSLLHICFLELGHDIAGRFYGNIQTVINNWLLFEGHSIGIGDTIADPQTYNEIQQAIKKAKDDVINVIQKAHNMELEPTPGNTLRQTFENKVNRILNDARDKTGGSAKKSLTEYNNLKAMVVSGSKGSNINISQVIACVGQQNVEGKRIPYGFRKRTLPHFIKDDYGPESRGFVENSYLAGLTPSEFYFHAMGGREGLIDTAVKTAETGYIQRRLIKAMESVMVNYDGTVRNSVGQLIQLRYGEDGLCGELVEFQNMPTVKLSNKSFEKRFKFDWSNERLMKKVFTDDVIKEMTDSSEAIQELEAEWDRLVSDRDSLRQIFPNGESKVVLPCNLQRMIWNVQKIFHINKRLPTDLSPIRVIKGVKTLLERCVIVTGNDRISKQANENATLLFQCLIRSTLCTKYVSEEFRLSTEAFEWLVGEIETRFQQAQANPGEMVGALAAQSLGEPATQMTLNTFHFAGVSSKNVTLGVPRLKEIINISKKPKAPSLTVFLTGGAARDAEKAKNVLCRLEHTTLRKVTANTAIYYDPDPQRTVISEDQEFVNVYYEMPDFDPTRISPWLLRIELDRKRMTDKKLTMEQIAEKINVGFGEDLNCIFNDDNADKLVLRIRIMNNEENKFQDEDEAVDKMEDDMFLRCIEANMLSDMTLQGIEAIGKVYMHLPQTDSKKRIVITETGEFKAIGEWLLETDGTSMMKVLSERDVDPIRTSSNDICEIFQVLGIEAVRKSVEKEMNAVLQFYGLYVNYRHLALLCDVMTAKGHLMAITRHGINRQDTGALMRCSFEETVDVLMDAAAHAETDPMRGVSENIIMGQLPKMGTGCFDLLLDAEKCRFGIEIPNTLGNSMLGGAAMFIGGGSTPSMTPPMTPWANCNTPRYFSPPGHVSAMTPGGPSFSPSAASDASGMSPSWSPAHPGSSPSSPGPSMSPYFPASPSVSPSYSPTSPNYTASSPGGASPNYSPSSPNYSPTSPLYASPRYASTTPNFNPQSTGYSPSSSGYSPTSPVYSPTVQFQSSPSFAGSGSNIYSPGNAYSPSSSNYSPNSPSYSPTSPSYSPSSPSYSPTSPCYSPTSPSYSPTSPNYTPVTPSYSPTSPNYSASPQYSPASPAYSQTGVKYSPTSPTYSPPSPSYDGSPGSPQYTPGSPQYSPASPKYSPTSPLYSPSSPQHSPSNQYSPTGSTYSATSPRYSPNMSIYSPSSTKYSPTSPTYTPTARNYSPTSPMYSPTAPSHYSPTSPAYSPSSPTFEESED

Here are results for 3 molecules from paper PMC11588057.

The target of assay [1] is GFP-tagged dPCIF1 (knock-in allele dPCIF1^GFP-KI) (Drosophila (endogenous in embryos)) (UniProt Q9VPB7). Briefly: affinity purification with mass spectrometry; co-IP with anti-GFP antibody from dPCIF1^GFP-KI early embryos (0.5 to 1.5 h), followed by mass spectroscopic analysis.
Assay [2] has as its target T1, endogenous GAGA factor (GAF) (Drosophila (endogenous in embryos)) (UniProt Q08605).
T1 sequence: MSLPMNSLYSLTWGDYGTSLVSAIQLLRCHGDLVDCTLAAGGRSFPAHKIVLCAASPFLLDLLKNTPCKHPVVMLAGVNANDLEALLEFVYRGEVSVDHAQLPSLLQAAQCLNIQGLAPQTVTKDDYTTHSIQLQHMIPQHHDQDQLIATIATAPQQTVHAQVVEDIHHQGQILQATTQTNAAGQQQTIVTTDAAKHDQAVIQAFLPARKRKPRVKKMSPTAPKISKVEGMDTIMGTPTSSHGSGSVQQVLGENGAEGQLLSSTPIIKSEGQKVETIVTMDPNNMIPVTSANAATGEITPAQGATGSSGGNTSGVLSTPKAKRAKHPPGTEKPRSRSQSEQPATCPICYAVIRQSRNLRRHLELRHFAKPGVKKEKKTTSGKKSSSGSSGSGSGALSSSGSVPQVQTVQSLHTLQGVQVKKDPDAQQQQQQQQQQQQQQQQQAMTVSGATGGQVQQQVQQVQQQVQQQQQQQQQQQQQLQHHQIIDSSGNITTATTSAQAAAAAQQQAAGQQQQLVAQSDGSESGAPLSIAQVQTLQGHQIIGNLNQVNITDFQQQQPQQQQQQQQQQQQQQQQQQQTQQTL
In words: affinity purification with mass spectrometry; co-IP of GAF from embryos at the 2 to 3 h stage, followed by mass spectroscopic analysis.

Assay [3] concerns the target GFP-tagged dPCIF1 (knock-in allele dPCIF1^GFP-KI) (Drosophila (endogenous in embryos)) (UniProt Q9VPB7). In words: affinity purification with mass spectrometry; co-IP with anti-GFP antibody from dPCIF1^GFP-KI early embryos (0.5 to 1.5 h), followed by mass spectroscopic analysis. This is another data set of the same source.

Turning to “histone H2Av (from UniProt P08985 1-141)”, the binding result in assay [1] is recorded as “binds”.
For “RpII215 (Pol II subunit) (from UniProt P04052 1-1887)”, the binding entry in assay [2] and in assay [1] was “binds” throughout.

B1: endogenous HIRA (protein, UniProt O17468 1-1047)
chain: MRLLKPAWVHHDDKQIFSVDIHKDCTKFATGGQGSDCGRVVIWNLLPVLSDKAEFDADVPKMLCQMDQHLACVNCVRWSQNGQNLASGSDDKLIMIWRKSAGSSGVFGTGGMQKNHESWKCFYTLRGHDGDVLDLAWSPNDVYLASCSIDNTVIIWDAQAFPHSVATLKGHTGLVKGVSWDPLGRFLASQSDDRSIKIWNTMNWSLSHTITEPFEECGGTTHILRLSWSPDGQYLVSAHAMNGGGPTAQIIEREGWKCDKDFVGHRKAVTCVRFHNSILSRQENDGSPSKPLQYCCLAVGSRDRSLSVWMTALQRPMVVIHELFNASILDLTWGPQECLLMACSVDGSIACLKFTEEELGKAISEEEQNAIIRKMYGKNYVNGLGKSAPVLEHPQRLLLPQGDKPTKFPLSNNNEANQRPISKQTETRTKDGKRRITPMFIPLHEDGPTSLSMNIVSSSGSSTTALTSCSAAIGTLPAAAPTESAATPLMPLEPLVSKIDLGRLDSRLKTQPASQRRQSLPFDPGQSNELLRTPRLEEHQSSTCSPSNLNVTATGKSEFVKAALDYRLHVSNGHLKTQHGMLAKVTASDSKEMLWEFYVGSPLVNLNLCEKYAMLCSLDGSMRLISMETGCPVFPAISLTSSAVHCAFSPDNSLVGVLTECGLLRIWDIAKKVVSLAAGCLELLNKHGTAAQFSVTNQGMPLIGFPSGNSYSYSTSLQSWLVLATKDAIMYHGIRGTLPRDMDQMQQKFPLLSMQASSQNYFSFTGSMELRHSESWQQCAKIRFIENQIKLCEALQSLDELQHWHKMLTFQLATHGSEKRMRVFLDDLLSMPEPGISQFVPKLELMQCVLDTLKPHSEWNRLHSEYTELLKECKSERQKDIFATPAPPQQKTASSAGSSPRSGEATGEEVTEKDGATAVAAAVVAGSRMAVTTGTSTTTTTTASSSLSSSGSSSSTSGSGSSSSSSSTSSLSVPQPAPSLSPEIQTLDSPTVCIDDEILSASSSLPPLDTSPVEVSPASTSGGAASTSPAASVAGSAPVSSSKTDQT
With B1, the binding result in assay [2] and in assay [3] was “binds” each time.
